From paper PMC3788105

Tests used:
Experiment in all cases: co-IP; HA-Htz1 immunoprecipitated from soluble yeast cell lysate with monoclonal anti-HA agarose beads overnight at 4°C, washed three times in co-IP buffer; partners detected by immunoblot (anti-Flag or anti-Chz1)
[1] = target: HA-tagged Htz1 I109T (S. cerevisiae)
[2] = target: HA-tagged Htz1 S111P (S. cerevisiae)
[3] = target: HA-tagged Htz1 ∆111-133 (truncated at position 110) (S. cerevisiae)

Measured: binding

B1: Chz1 (protein, UniProt P40019 1-153)
chain: MSDEAKEKRELESQKESSHNKSEKSVEPKPKRRRRRNYDDYDAEVAKEETKAKNGLTKSENNGTVEDSESDMDDAKLDALMGNEGEEEEDDLAEIDTSNIITSGRRTRGKVIDYKKTAEELDKKEPSTGSKDDVGYGEKEEDDEDEEDDDFKE
binds: all assays above

These are yes or no findings as the source states them, for the method shown. In cells and extracts the contact can be indirect. Binding can be weak; no strength is given.
